# Measured values taken from PubChem BioAssay AID540256 (National Center for Advancing Translational Sciences (NCATS), 2011).
# Out of some 300,000 compounds screened, about 3,700 (1.2%) were called active. Inconclusive means that the source gave no clear call. Such entries were picked first, then a sample of the others. The call rests on the fitted dose curve; tested in HEK293 cells. Where the call is inconclusive, the potency comes from a doubtful curve fit.
# Experiment: qHTS for Inhibitors of binding or entry into cells for Lassa Virus; further: nearly all actives have a fitted effect of over 50% in size
# Details: Lassa virus pseudotype entry inhibition, cell reporter; activity change, negative = inhibition: at 37.9 µM (top of the series) unless noted
# On the % scale 0 is the no-effect control and ±100 the full control effect; potency means the concentration at half of the fitted maximal effect.
Structure (SMILES),Potency,"activity change, negative = inhibition"
CCOC(=O)C1CCN(C(=O)C(C)Oc2ccc(Br)cc2)CC1 (stereo not given),"inconclusive: 8.91 µM [inhibitor, partial curve, poor fit]",–
O=C(N/N=C/c1ccc[nH]1)c1cc(-c2ccc(Cl)cc2)nc2ccccc12,"inconclusive: 35.5 µM [inhibitor, single point]",–
CCc1ccccc1NC(=O)C1CCN(C(=O)N2CC(C)Oc3ccc(Cl)cc32)CC1 (stereo not given),"inconclusive: 3.16 µM [inhibitor, partial curve, poor fit]",–
CCn1c(SCC(=O)N/N=C/c2ccc(OC)c(OC)c2)nc2ccccc21,–,inactive: -14.5%
COc1ccc(CNc2oc(Cc3cccc4ccccc34)nc2C#N)cc1,active: 17.8 µM,–
Cc1cc(F)ccc1NC1(c2ccccc2)C(=O)c2ccccc2C1=O,"inconclusive: 7.94 µM [activator, partial curve, poor fit]",–
COc1ccc(CN(C)C(=O)c2oc3ccccc3c2CSC)cc1F,–,inactive: -17.2% [at 46.1 µM]
C=CCn1c(SC(C)C(N)=O)nc2sc(CC)cc2c1=O (stereo not given),–,inactive: 7.57%
C/C(=N\O)c1c(O)cc(-c2ccccc2)n(-c2ccccc2)c1=O,"inconclusive: 0.891 µM [inhibitor, single point]",–
COc1ccccc1/C=C/C(C)=O,"inconclusive: 1.26 µM [inhibitor, single point]",–
CCN(C(=O)COC(=O)c1cc(-c2cccs2)nc2ccccc12)C1CCS(=O)(=O)C1 (stereo not given),–,inactive: 16.4% [at 46.1 µM]
CCOc1ccccc1NC(=O)Cn1c(=O)n(Cc2ccco2)c(=O)c2ccc(C(=O)NC3CCCC3)cc21,–,inactive: 2.76% [at 46.1 µM]
CC(OC(=O)c1ccccc1N1C(=O)C2C3CCC(C3)C2C1=O)C(=O)c1ccccc1 (stereo not given),"inconclusive: 35.5 µM [inhibitor, single point]",–
COc1ccc(-c2nc(C#N)c(N3CCC(C)CC3)o2)cc1,–,inactive: -11.5% [at 46.1 µM]
COc1ccc(CNC(=O)c2ccc3nc(CCc4ccccc4)oc3c2)c(OC)c1,"inconclusive: 20 µM [inhibitor, single point]",–
O=C(CN(CCc1ccccc1)Cc1ccccc1)Oc1ccccc1P(=O)(O)O,"inconclusive: 11.2 µM [activator, partial curve, poor fit]",–
Cc1cccnc1NC(=S)NC(=O)c1cncc(Br)c1,–,inactive: 8.47%
Clc1ccc(-c2nnc(-c3ccccc3Cl)o2)cc1,"inconclusive: 14.6 µM [inhibitor, single point]",–

Structure (SMILES),Potency,"activity change, negative = inhibition"
COc1cc(C2c3c(-c4ccc(C)cc4)n[nH]c3C(=O)N2c2ccc(F)cc2)ccc1O (stereo not given),"inconclusive: 8.91 µM [inhibitor, partial curve, poor fit]",–
O=C(/C=C/c1ccc(Cl)cc1Cl)N1CCc2ccccc21,"inconclusive: 6.31 µM [inhibitor, single point]",–
Cc1cccc(NC(=O)c2cc(S(=O)(=O)N3CCN(c4ccccc4F)CC3)ccc2F)c1C,–,inactive: 27.5% [at 46.1 µM]
O=C(NNC(=O)c1ccccc1F)c1cccc(-n2cccc2)c1,–,inactive: 6.13%
COCCN(Cc1cc2ccc(C)cc2n2nnnc12)Cc1nnnn1C(C)(C)C,–,inactive: -3.82%
CN(CC(=O)Nc1ccc(Cl)cc1)C(=O)c1cccc(S(=O)(=O)N(C)C)c1,"inconclusive: 20 µM [activator, single point]",–
Cc1cc(C(=O)N/N=C/c2cccs2)no1,–,inactive: -0.328%
COc1ccc(C2/C(=C(/O)c3ccc4c(c3)CC(C)O4)C(=O)C(=O)N2CCCN2CCOCC2)cc1 (stereo not given),"inconclusive: 10 µM [activator, partial curve, poor fit]",–
C=CCN1C(=O)c2ccc(C(=O)N(CC)CC(=O)Nc3c(F)cccc3F)cc2C1=O,–,inactive: 2.7% [at 46.1 µM]
Cc1c(Cl)cccc1-n1ncc(C(=O)NCc2cccs2)c1C1CCN(C(=O)OC(C)(C)C)CC1,"inconclusive: 17.8 µM [inhibitor, single point]",–
COc1ccc(CCNC(=O)c2nnn(CC(=O)Nc3ccc(C)cc3C)c2N)cc1OC,"inconclusive: 35.5 µM [inhibitor, single point]",–
CCCNC(=S)NC1CC2CCCC(C1)N2CC(C)C (stereo not given),"inconclusive: 32.6 µM [activator, single point]",–
O=[N+]([O-])c1cccnc1S(=O)(=O)c1ccccc1,"inconclusive: 15.8 µM [inhibitor, single point]",–
O=[N+]([O-])c1ccc(COc2ccc(-c3[nH]ncc3-c3ccc(Cl)cc3)c(O)c2)cc1,"inconclusive: 35.5 µM [inhibitor, single point]",–
Cc1ccc(Nc2nc(=O)c3cccnc3s2)c(Br)c1,"inconclusive: 4.47 µM [inhibitor, full curve, poor fit]",–
CCOC(=O)n1c(=O)n(Cc2ccc(Cl)c(Cl)c2)c2ccccc21,"inconclusive: 35.5 µM [inhibitor, single point]",–
Cc1cc(=O)n(Cc2cccc(F)c2)c2c1c(C)nn2-c1cccc(F)c1,–,inactive: 5.64% [at 46.1 µM]
